The text below walks through data of patent publication US8192734B2, “Compositions and methods for bone strengthening” (Cornell University, priority 2007, dated 2012).

The nature of the data set: Expt 1: body weight and plasma measures. Format: in vivo, pig. Particulars: BD + phytase 2,000 U/kg, 6 wk.

B1: Phytase: Escherichia coli AppA2 phytase (OptiPhos, JBS United, Inc.), added to diets at feed mixing; AppA2 is SEQ ID NO: 2 (protein, listed as Escherichia coli)
chain: MKAILIPFLSLLIPLTPQSAFAQSEPELKLESVVIVSRHGVRAPTKATQLMQDVTPDAWPTWPVKLGWLTPRGGELIAYLGHYQRQRLVADGLLAKKGCPQPGQVAIIADVDERTRKTGEAFAAGLAPDCAITVHTQADTSSPDPLFNPLKTGVCQLDNANVTDAILSRAGGSIADFTGHRQTAFRELERVLNFSQLNLCLNREKQDESCSLTQALPSELKVSADNVSLTGAVSLASMLTEIFLLQQAQGMPEPGWGRITDSHQWNTLLSLHNAQFYLLQRTPEVARSRATPLLDLIMAALTPHPPQKQAYGVTLPTSVLFIAGHDTNLANLGGALELNWTLPGQPDNTPPGGELVFERWRRLSDNSQWIQVSLVFQTLQQMRDKTPLSLNTPPGEVKLTLAGCEERNAQGMCSLAGFTQIVNEARIPACSL
As for B1, the “body weight at the end of the experiment” value amounted to 33.4 ± 0.8 kg, the “plasma alkaline phosphatase activity at the end of the experiment” value is given as 173.0±6.8 U/L and the “plasma inorganic P concentration at the end of the experiment” value stood at 83.6 ± 0.1 g/L.
